Values from PubChem BioAssay AID504774 (Drosophila RNAi Screening Center, 2011)
The deposit covers about 23,000 reagents; below is an unselected part of those with a known target gene and a result. 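Values are quantile-normalised luminescence on an arbitrary scale; higher means more cells surviving MMS.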 A plus sign joins genes that one reagent is predicted to hit.

Purpose: 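Fly genes whose loss alters survival after alkylation damage to DNA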 (primary screen)
System: Drosophila Kc167 cells
Reagent: long dsRNA against Drosophila genes, about 0.25 µg dsRNA per well
Timing: about 6 days: 3 days knock-down, then 3 days with or without MMS
Conditions: methyl methanesulphonate 0.004% (w/v) for 3 days after knock-down
Measurement: 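ATP-dependent luminescence as a measure of live cells in MMS-exposed wells, quantile normalised within each plate, with replicate values also given as a mean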
Scale: mean viability with MMS and viability with MMS: higher = more surviving cells after MMS

| predicted target | dsRNA | mean viability with MMS | viability with MMS, replicate 1 | viability with MMS, replicate 2 |
| --- | --- | --- | --- | --- |
| CG31145 | DRSC13634 | 3.55e6 | 3.92e6 | 4.14e6 |
| CG31145 | DRSC14206 | 3.34e6 | 3.75e6 | 3.75e6 |
| CG31145 | DRSC14670 | 3.00e6 | 3.62e6 | 3.62e6 |
| CG31145 | DRSC14671 | 3.38e6 | 3.83e6 | 3.75e6 |
| CASK | DRSC14588 | 3.73e6 | 4.20e6 | 4.06e6 |
| CASK | DRSC16597 | 3.78e6 | 4.31e6 | 4.28e6 |
| CASK | DRSC16598 | 3.51e6 | 4.00e6 | 3.97e6 |
| CASK | DRSC21917 | 3.59e6 | 4.12e6 | 3.98e6 |
| CheA86a (Chemosensory protein A 86a) | DRSC12839 | 3.56e6 | 3.96e6 | 4.12e6 |
| CG15253 | DRSC01871 | 3.49e6 | 3.96e6 | 3.96e6 |
| CG1998 | DRSC19829 | 3.63e6 | 4.02e6 | 4.19e6 |
| CG14535 | DRSC02393 | 3.58e6 | 4.02e6 | 4.11e6 |
| CG14669 | DRSC12065 | 3.11e6 | 3.65e6 | 3.66e6 |
| CG14669 | DRSC12067 | 3.56e6 | 4.20e6 | 3.86e6 |
| CG14669 | DRSC12068 | 3.63e6 | 4.20e6 | 3.98e6 |
| CG14669 | DRSC12255 | 3.68e6 | 4.16e6 | 4.16e6 |
| jef (jet fuel) | DRSC06198 | 3.83e6 | 4.02e6 | 4.43e6 |
| CG3502 | DRSC04381 | 3.79e6 | 4.34e6 | 4.21e6 |
| CG9624 | DRSC16523 | 3.32e6 | 3.78e6 | 3.74e6 |
| sc (scute) | DRSC18830 | 3.46e6 | 3.91e6 | 3.93e6 |
| CG5397 | DRSC00683 | 3.67e6 | 4.19e6 | 4.18e6 |
| CG13724 | DRSC10053 | 3.30e6 | 3.67e6 | 3.74e6 |
| CG17917 | DRSC12570 | 3.58e6 | 4.04e6 | 4.08e6 |
| CG33981 + fab1 | DRSC07412 | 3.58e6 | 3.97e6 | 4.16e6 |
| CG34444 | DRSC06435 | 3.54e6 | 4.12e6 | 4.14e6 |
| Wsck | DRSC13682 | 3.61e6 | 4.08e6 | 4.10e6 |
| Nse4 (Non-SMC element 4) | DRSC02239 | 3.44e6 | 4.10e6 | 3.68e6 |
| EMRE (Essential MCU regulator) | DRSC06686 | 3.56e6 | 3.96e6 | 4.12e6 |
| CG15673 | DRSC04263 | 3.71e6 | 4.22e6 | 4.14e6 |
| Mettl3 (Methyltransferase like 3) | DRSC15921 | 3.85e6 | 4.37e6 | 4.32e6 |
| Rab8 | DRSC11261 | 3.66e6 | 4.19e6 | 4.09e6 |
| Rad51D (Rad51 recombinase D) | DRSC06840 | 3.66e6 | 4.09e6 | 4.12e6 |
| Idh3b (Isocitrate dehydrogenase 3b) | DRSC16040 | 3.66e6 | 4.18e6 | 4.08e6 |
| CG1637 | DRSC18865 | 3.45e6 | 3.92e6 | 3.92e6 |
| CG1637 | DRSC19748 | 3.59e6 | 4.09e6 | 4.12e6 |
| CG1637 | DRSC19749 | 3.48e6 | 3.93e6 | 3.96e6 |
| CG14306 (retired record) | DRSC14785 | 3.53e6 | 3.84e6 | 4.16e6 |
| Nlg2 (Neuroligin 2) | DRSC03578 | 3.58e6 | 4.11e6 | 3.99e6 |
| CG8314 | DRSC07144 | 3.70e6 | 4.21e6 | 4.17e6 |
| Arl8 (ADP ribosylation factor-like 8) | DRSC16334 | 3.61e6 | 4.07e6 | 4.12e6 |
| rswl (roswell) | DRSC06923 | 3.50e6 | 3.98e6 | 3.94e6 |
| mew (multiple edematous wings) | DRSC18971 | 3.34e6 | 3.83e6 | 3.72e6 |
| mew (multiple edematous wings) | DRSC20352 | 3.46e6 | 3.98e6 | 3.84e6 |
| CG7029 | DRSC16177 | 3.37e6 | 3.78e6 | 3.87e6 |
| Srp72 (Signal recognition particle 72) | DRSC15800 | 3.87e6 | 4.21e6 | 4.42e6 |
| CG42233 | DRSC14328 | 3.66e6 | 4.21e6 | 4.08e6 |
| CG42233 | DRSC15416 | 3.57e6 | 4.00e6 | 4.11e6 |
| Rrp40 (Ribosomal RNA processing 40) | DRSC00074 | 3.47e6 | 3.89e6 | 4.00e6 |
| CG2736 | DRSC04314 | 3.56e6 | 4.16e6 | 3.92e6 |
| sowi (solwind) | DRSC12558 | 3.60e6 | 4.16e6 | 4.00e6 |
| Sfmbt (Scm-related gene containing four mbt domains) | DRSC02552 | 3.54e6 | 3.93e6 | 4.12e6 |
| CG2003 | DRSC15411 | 3.60e6 | 4.05e6 | 4.12e6 |
| CtIP (CTBP-interacting protein) | DRSC11785 | 3.58e6 | 4.14e6 | 3.97e6 |
| Zfrp8 (Zinc finger protein RP-8) | DRSC04352 | 3.56e6 | 4.00e6 | 4.10e6 |
| CG10435 | DRSC14246 | 3.52e6 | 4.01e6 | 3.96e6 |
| CG4239 | DRSC19885 | 3.49e6 | 4.23e6 | 3.68e6 |
| CalpA (Calpain-A) | DRSC07352 | 3.51e6 | 3.92e6 | 4.03e6 |
| FoxK (Forkhead box K) | DRSC09859 | 3.58e6 | 4.09e6 | 4.04e6 |
| CG34266 | DRSC08323 | 3.54e6 | 3.91e6 | 4.13e6 |
| CG5676 | DRSC02875 | 3.66e6 | 3.96e6 | 4.33e6 |
| CG3663 | DRSC04402 | 3.71e6 | 4.11e6 | 4.25e6 |
| Bgb | DRSC08148 | 3.56e6 | 4.04e6 | 4.04e6 |
| Cpr49Ae (Cuticular protein 49Ae) | DRSC07201 | 3.48e6 | 3.90e6 | 3.98e6 |
| CG11970 | DRSC14157 | 3.67e6 | 4.19e6 | 4.15e6 |
| CheB38c (Chemosensory protein B 38c) | DRSC02389 | 3.73e6 | 4.07e6 | 4.33e6 |
| M6 | DRSC11869 | 3.45e6 | 3.84e6 | 3.96e6 |
| CG9297 | DRSC16469 | 3.49e6 | 3.98e6 | 3.91e6 |
| 5-HT1B (5-hydroxytryptamine (serotonin) receptor 1B) | DRSC05031 | 3.42e6 | 3.96e6 | 3.76e6 |
| 5-HT1B (5-hydroxytryptamine (serotonin) receptor 1B) | DRSC05769 | 2.68e6 | 3.49e6 | 3.46e6 |

11 of these entries, reformatted:
{"predicted target":"CG4239","dsRNA":"DRSC19885","mean viability with MMS":3.49e6,"viability with MMS, replicate 1":4.23e6,"viability with MMS, replicate 2":3.68e6}
{"predicted target":"CalpA (Calpain-A)","dsRNA":"DRSC07352","mean viability with MMS":3.51e6,"viability with MMS, replicate 1":3.92e6,"viability with MMS, replicate 2":4.03e6}
{"predicted target":"FoxK (Forkhead box K)","dsRNA":"DRSC09859","mean viability with MMS":3.58e6,"viability with MMS, replicate 1":4.09e6,"viability with MMS, replicate 2":4.04e6}
{"predicted target":"CG34266","dsRNA":"DRSC08323","mean viability with MMS":3.54e6,"viability with MMS, replicate 1":3.91e6,"viability with MMS, replicate 2":4.13e6}
{"predicted target":"CG5676","dsRNA":"DRSC02875","mean viability with MMS":3.66e6,"viability with MMS, replicate 1":3.96e6,"viability with MMS, replicate 2":4.33e6}
{"predicted target":"CG3663","dsRNA":"DRSC04402","mean viability with MMS":3.71e6,"viability with MMS, replicate 1":4.11e6,"viability with MMS, replicate 2":4.25e6}
{"predicted target":"Bgb","dsRNA":"DRSC08148","mean viability with MMS":3.56e6,"viability with MMS, replicate 1":4.04e6,"viability with MMS, replicate 2":4.04e6}
{"predicted target":"Cpr49Ae (Cuticular protein 49Ae)","dsRNA":"DRSC07201","mean viability with MMS":3.48e6,"viability with MMS, replicate 1":3.90e6,"viability with MMS, replicate 2":3.98e6}
{"predicted target":"CG11970","dsRNA":"DRSC14157","mean viability with MMS":3.67e6,"viability with MMS, replicate 1":4.19e6,"viability with MMS, replicate 2":4.15e6}
{"predicted target":"CheB38c (Chemosensory protein B 38c)","dsRNA":"DRSC02389","mean viability with MMS":3.73e6,"viability with MMS, replicate 1":4.07e6,"viability with MMS, replicate 2":4.33e6}
{"predicted target":"M6","dsRNA":"DRSC11869","mean viability with MMS":3.45e6,"viability with MMS, replicate 1":3.84e6,"viability with MMS, replicate 2":3.96e6}
